Source: US20190177434A1
Results are given in words; binding and its absence hold for the method and conditions named. Binding can be weak; no strength is given. Tags and fused reporters may be left off the sequences shown.

What was measured:
Experiment in all cases: ELISA
sheep IgG-Fc (sheep) = biological target: sheep IgG-Fc (sheep)
donkey IgG-Fc (donkey) = biological target: donkey IgG-Fc (donkey)
swine IgG-Fc (swine) = biological target: swine IgG-Fc (swine)
goat IgG-Fc (goat) = biological target: goat IgG-Fc (goat)
[1] = biological target: chimpanzee IgG-Fc (chimpanzee)
horse IgG-Fc (horse) = biological target: horse IgG-Fc (horse)
cat IgG-Fc (cat) = biological target: cat IgG-Fc (cat)
[2] = biological target: guinea pig IgG-Fc (guinea pig)
[3] = biological target: syrian hamster IgG-Fc (syrian hamster)

Binder	binding (sheep IgG-Fc (sheep))	binding (donkey IgG-Fc (donkey))	binding (swine IgG-Fc (swine))	binding (goat IgG-Fc (goat))	binding [1]	binding (horse IgG-Fc (horse))	binding (cat IgG-Fc (cat))	binding [2]	binding [3]
IgG-Fc-16 (VHH) VHH: QVQLQESGGGLVQAGGSLRLSCAASGRAVGNYIIGWFRQAPGKEREFVATTTRDGGSTFYADSVKGRFTISRDNAKNTVNLQMNSLEPEDTAVYYCAAKSWSVPLRPTSADFDSWGQGTQVTVSS	binds	binds	binds	binds	binds	binds	binds	binds	binds
IgG-Fc-42 (VHH) VHH: QVQLQESGGGLVQAGDSLRLSCAASGRTSWIYGMAWFRQAPGKEREFVAFISSSGSPFYADSLKGRVTVSRDNAKNTAYLVINSLKPEDTAVYSCATGPKTTAYYTADYHYWAQGTQVTVSS	binds	binds	binds		binds	binds	binds		
IgG-Fc-29 (VHH) VHH: QVQLQESGGGLVQAGGSLRLSCAASGRTFSSGAMGWFRQTPGKEREFVAAINWSVGSTYYADAVKDRFTISRDNAKNTVYLQMNSLKPEDTAVYYCAADEADGPMAPYGFRGDYWGKGTLVTVSS	binds	binds	binds	binds	binds	binds	binds	binds	binds
IgG-Fc-30 (VHH) VHH: QVQLQESGGGLVQAGGSLRLSCAASGRTFSSGAMGWFRQTPGKEREFVAAINWNIGNTYYADSVKDRFTISRDSAKNTVYLQMNSLKPEDTAVYYCAANEADGPMAPYGFRGDYWGKGTLVTVSS	binds	binds	binds	binds	binds	binds	binds	binds	binds
IgG-Fc-10 (VHH) VHH: QVQLQESGGGLVQAGDSLRISCRASGLTVNDLYMGWFRQAPGKEREFVGRVTPGDNTDYTYYVDSVKGRFTISRDSAKNTVYLQMNSLKLEDTAVYLCAGRRFGSSEWDYWGQGTQVTVSS	no binding			no binding			no binding	no binding	no binding
IgG-Fc-49 (VHH) VHH: QVQLQESGGGLVQPGGSLRVSCAASGFTFSSYYMSWVRQAPGKGLEWVSSINTGASSTYYAESVKGRFTISRDNAKNTLYLQMNSLKPEDTARYFCVRGRSVMDYWGKGTLVTVSS	binds	binds	binds		binds	binds	binds		

The next lines start with the values.

binding (sheep IgG-Fc (sheep))	binding (donkey IgG-Fc (donkey))	binding (swine IgG-Fc (swine))	binding (goat IgG-Fc (goat))	binding [1]	binding (horse IgG-Fc (horse))	binding (cat IgG-Fc (cat))	binding [2]	binding [3]	Binder
binds	binds	binds	binds	binds	binds	binds	binds	binds	IgG-Fc-28 (VHH) VHH: QVQLQDSGGGLVQAGGSLRLSCAASGRTFSSGAMGWFRQTPGKEREFVAAINWSVGSTYYADSVKDRFTISRDKAKNTVYLQMNSLKPEDTAVYYCAADEADGPMAPYGFRGDYWGKGTLVTVSS
binds	binds	binds		binds	binds	binds			IgG-Fc-47 (VHH) VHH: QVQLQESGGGLVQAGDSLRLSCAASGRTLSSYAMGWFRQVPGKGREFVAAIRRSGGSTYYADSAEGRFTISRDNAKNTVYLQMNNLRPEDTAVYYCAAGDDLVDQYDYWGQGTQVTVSS
no binding			no binding			no binding	no binding	no binding	IgG-Fc-01 (VHH) VHH: QVQLQESGGGLVQPGGSLRLSCAASGGTSIRIGSINALAWYRQALGNQRELVAAVTEGGSTNYADFVKGRFTISRDNAQNMMYLQMNSLKPEDTAVYYCNADKVLYSRGGYYSVANDLWGQGTQVTVSS
binds	binds	binds		binds	binds	binds			IgG-Fc-37 (VHH) VHH: QVQLQESGGGLVQAGDSLRLSCAALGRTFSDYHMGWFRQAPGKERTFVAAITWNGGDTVFEDSVKGRFTISRDNGKKTVSLQMSSLQPEDTAVYYCAASLAVLTRPTAPVISSSYDYWGQGTQVTVSS
binds	binds	binds	binds	binds	binds	binds	binds	binds	IgG-Fc-48 (VHH) VHH: QVQLQESGGGLVQPGESLRLSCAASGIAFEVFNMGWYRQAPGKQRELVATITNSGATNYADSVKGRFTISRDNAKDTLYLQMNSLKPEDTAVYYCNAQNSWRNIWGQGTQVTVSS
